Reference: patent US20140099313A1
Numbering of substitutions follows the chain as printed. Results are given in words; binding and its absence hold for the method and conditions named. Some entries that bind do so weakly or less than the wild type. One block for each binder: values may come before it.

Sequences of proteins named here, by UniProt entry; tags and fusion partners are left off. Residues count along the entry.
UniProt Q864V6, residues 21-132: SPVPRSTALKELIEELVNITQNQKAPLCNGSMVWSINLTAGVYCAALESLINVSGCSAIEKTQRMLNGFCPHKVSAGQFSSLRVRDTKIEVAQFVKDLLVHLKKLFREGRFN

Molecular target: rhesus IL-13 (rhesus) (UniProt Q864V6)
Assay: SPR (Biacore)

binding: binds
B1: 13C5.5L2E (antibody, V domains shown)
VH: EVTLRESGPGLVKPTQTLTLTCTLYGFSLSTSDMGVDWIRQPPGKGLEWLAHIWWDDVKRYNPALKSRLTISKDTSKNQVVLKLTSVDPVDTATYYCARTVSSGYIYYAMDYWGQGTLVTVSS
VL: DIQMTQSPSSLSASVGDRVTISCRASQDIRNYLNWYQQKPGKAPKLLIFYTSMKPRGVPSRFSGSGSGTDYTLTISSLQPEDIATYYCQQGNTLPLTFGGGTKVEIK

binding: binds
B2: 13C5.5L2EL3F (antibody, V domains shown)
VH: B1 VH
VL: B1 VL with N92L, L94P

binding: binds
B3: 13C5.5L3F (antibody, V domains shown)
VH: B1 VH
VL: B1 VL with M53K, K54L, P55H, R56S, N92L, L94P
